Measured values published in publication PMC11090844.
No constants are given. Whether binding was seen depends on the method and setting. In cells and extracts the contact can be indirect. Some binding calls cover weakened binding; strength is not graded here. For some of these results: Where a sequence is shown, tags or fusion partners need not be part of it.

Protein sequences, listed by entry. Tags and fused reporters are not part of them. Lines headed by an entry give the natural chain unless they say otherwise; changes in a name come on top. Chains listed by the source or under a name are the forms on record and can include a tag or linker.
Myc-BRCC3 (P46736-2, form named): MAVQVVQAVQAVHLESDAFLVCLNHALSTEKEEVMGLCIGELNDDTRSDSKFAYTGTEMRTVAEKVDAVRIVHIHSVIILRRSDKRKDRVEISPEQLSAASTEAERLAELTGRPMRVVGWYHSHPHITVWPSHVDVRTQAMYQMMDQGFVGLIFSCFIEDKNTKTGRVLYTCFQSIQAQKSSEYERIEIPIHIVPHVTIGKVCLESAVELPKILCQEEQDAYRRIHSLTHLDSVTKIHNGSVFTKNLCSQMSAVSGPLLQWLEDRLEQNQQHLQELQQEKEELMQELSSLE

Experiments:
[1] = molecular target: T1, zinc finger E-box binding homeobox 1 (ZEB1), endogenous (human (endogenous in MDA-MB-231)) (UniProt P37275); assay: co-IP; endogenous proteins in MDA-MB-231 lysate; anti-ZEB1 or anti-BRCC3 antibody on Protein A/G agarose, overnight at 4°C; IgG as negative control; western blot with anti-ZEB1 and anti-BRCC3
T1 sequence: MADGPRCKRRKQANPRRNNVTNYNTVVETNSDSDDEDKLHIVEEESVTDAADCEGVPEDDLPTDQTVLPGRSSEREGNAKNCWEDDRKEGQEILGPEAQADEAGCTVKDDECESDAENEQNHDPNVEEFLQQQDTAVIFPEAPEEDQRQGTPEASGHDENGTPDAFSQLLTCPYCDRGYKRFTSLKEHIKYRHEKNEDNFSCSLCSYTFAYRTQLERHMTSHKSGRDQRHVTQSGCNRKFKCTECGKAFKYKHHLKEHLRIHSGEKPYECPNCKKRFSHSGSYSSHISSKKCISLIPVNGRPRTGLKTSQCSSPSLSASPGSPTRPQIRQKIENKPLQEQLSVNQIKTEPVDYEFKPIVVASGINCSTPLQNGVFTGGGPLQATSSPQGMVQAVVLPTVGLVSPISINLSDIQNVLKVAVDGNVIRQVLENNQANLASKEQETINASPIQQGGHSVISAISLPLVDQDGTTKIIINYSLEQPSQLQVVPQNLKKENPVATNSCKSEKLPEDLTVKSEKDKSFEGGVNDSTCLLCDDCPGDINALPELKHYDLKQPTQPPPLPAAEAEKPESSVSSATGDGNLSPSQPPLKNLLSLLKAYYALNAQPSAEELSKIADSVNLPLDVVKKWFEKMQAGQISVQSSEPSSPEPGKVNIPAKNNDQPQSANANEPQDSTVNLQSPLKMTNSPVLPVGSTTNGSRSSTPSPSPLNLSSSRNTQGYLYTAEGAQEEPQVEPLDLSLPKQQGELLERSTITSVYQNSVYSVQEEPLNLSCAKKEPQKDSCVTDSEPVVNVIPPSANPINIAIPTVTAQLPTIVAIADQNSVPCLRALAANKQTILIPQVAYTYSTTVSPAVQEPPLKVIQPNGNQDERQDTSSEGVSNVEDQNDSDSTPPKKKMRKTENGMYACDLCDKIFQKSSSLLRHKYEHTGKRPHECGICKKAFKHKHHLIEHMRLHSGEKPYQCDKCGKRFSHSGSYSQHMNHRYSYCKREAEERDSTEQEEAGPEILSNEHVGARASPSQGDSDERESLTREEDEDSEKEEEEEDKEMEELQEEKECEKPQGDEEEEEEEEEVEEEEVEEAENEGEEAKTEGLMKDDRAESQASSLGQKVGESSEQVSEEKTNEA

[2] = molecular target: T2, Flag-ZEB1 (zinc finger E-box binding homeobox 1) (UniProt P37275); assay: co-IP; MDA-MB-231 cells transfected with Flag-ZEB1 or Myc-BRCC3 for 48 h, treated with MG132 (20 uM); NP40 lysate; IP with anti-Flag or anti-Myc overnight at 4°C, protein A+G agarose; western blot with anti-ZEB1 and anti-BRCC3
T2 sequence: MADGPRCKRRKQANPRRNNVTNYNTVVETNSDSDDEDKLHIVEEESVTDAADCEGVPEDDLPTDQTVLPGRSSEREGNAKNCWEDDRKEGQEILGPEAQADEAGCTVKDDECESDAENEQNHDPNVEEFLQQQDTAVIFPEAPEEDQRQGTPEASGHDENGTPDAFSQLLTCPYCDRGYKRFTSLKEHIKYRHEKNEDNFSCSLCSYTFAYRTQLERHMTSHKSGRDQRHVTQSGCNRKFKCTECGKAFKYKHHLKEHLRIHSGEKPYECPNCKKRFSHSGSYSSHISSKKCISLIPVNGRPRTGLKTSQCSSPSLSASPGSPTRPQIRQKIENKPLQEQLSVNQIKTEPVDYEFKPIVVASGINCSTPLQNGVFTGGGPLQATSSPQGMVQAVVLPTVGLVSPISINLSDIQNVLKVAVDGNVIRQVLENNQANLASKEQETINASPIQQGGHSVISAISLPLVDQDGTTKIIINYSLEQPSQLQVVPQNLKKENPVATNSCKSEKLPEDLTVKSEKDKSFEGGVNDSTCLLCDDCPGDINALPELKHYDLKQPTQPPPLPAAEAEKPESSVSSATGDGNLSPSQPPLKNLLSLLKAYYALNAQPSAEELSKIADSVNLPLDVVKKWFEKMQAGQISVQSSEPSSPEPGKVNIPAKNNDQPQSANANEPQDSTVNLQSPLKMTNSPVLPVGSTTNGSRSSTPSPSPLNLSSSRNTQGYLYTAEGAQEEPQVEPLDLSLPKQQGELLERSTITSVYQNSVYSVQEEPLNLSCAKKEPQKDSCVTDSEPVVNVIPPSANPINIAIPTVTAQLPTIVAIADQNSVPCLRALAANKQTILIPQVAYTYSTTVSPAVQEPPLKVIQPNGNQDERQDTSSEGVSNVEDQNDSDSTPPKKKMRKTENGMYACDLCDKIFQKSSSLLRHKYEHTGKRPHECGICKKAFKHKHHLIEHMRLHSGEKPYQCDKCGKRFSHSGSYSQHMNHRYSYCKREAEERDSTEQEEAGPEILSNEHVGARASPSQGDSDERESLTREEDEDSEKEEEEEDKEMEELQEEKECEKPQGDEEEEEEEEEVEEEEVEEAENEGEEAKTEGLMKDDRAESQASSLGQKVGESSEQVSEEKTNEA

[3] = molecular target: breast cancer susceptibility gene 1/2-containing complex subunit 3 (BRCC3), endogenous (human (endogenous in MDA-MB-231)) (UniProt P46736); assay: co-IP; endogenous proteins in MDA-MB-231 lysate; anti-ZEB1 or anti-BRCC3 antibody on Protein A/G agarose, overnight at 4°C; IgG as negative control; western blot with anti-ZEB1 and anti-BRCC3
Myc-BRCC3 = Myc-BRCC3 (UniProt P46736); assay: co-IP; MDA-MB-231 cells transfected with Flag-ZEB1 or Myc-BRCC3 for 48 h, treated with MG132 (20 uM); NP40 lysate; IP with anti-Flag or anti-Myc overnight at 4°C, protein A+G agarose; western blot with anti-ZEB1 and anti-BRCC3

What does the source list for “breast cancer susceptibility gene 1/2-containing complex subunit 3 (BRCC3), endogenous (from UniProt P46736-2 1-291) (enzyme)”?
binding [1]: binds; binding [2]: binds

B1: zinc finger E-box binding homeobox 1 (ZEB1), endogenous (protein, UniProt P37275 1-1124)
chain: MADGPRCKRRKQANPRRNNVTNYNTVVETNSDSDDEDKLHIVEEESVTDAADCEGVPEDDLPTDQTVLPGRSSEREGNAKNCWEDDRKEGQEILGPEAQADEAGCTVKDDECESDAENEQNHDPNVEEFLQQQDTAVIFPEAPEEDQRQGTPEASGHDENGTPDAFSQLLTCPYCDRGYKRFTSLKEHIKYRHEKNEDNFSCSLCSYTFAYRTQLERHMTSHKSGRDQRHVTQSGCNRKFKCTECGKAFKYKHHLKEHLRIHSGEKPYECPNCKKRFSHSGSYSSHISSKKCISLIPVNGRPRTGLKTSQCSSPSLSASPGSPTRPQIRQKIENKPLQEQLSVNQIKTEPVDYEFKPIVVASGINCSTPLQNGVFTGGGPLQATSSPQGMVQAVVLPTVGLVSPISINLSDIQNVLKVAVDGNVIRQVLENNQANLASKEQETINASPIQQGGHSVISAISLPLVDQDGTTKIIINYSLEQPSQLQVVPQNLKKENPVATNSCKSEKLPEDLTVKSEKDKSFEGGVNDSTCLLCDDCPGDINALPELKHYDLKQPTQPPPLPAAEAEKPESSVSSATGDGNLSPSQPPLKNLLSLLKAYYALNAQPSAEELSKIADSVNLPLDVVKKWFEKMQAGQISVQSSEPSSPEPGKVNIPAKNNDQPQSANANEPQDSTVNLQSPLKMTNSPVLPVGSTTNGSRSSTPSPSPLNLSSSRNTQGYLYTAEGAQEEPQVEPLDLSLPKQQGELLERSTITSVYQNSVYSVQEEPLNLSCAKKEPQKDSCVTDSEPVVNVIPPSANPINIAIPTVTAQLPTIVAIADQNSVPCLRALAANKQTILIPQVAYTYSTTVSPAVQEPPLKVIQPNGNQDERQDTSSEGVSNVEDQNDSDSTPPKKKMRKTENGMYACDLCDKIFQKSSSLLRHKYEHTGKRPHECGICKKAFKHKHHLIEHMRLHSGEKPYQCDKCGKRFSHSGSYSQHMNHRYSYCKREAEERDSTEQEEAGPEILSNEHVGARASPSQGDSDERESLTREEDEDSEKEEEEEDKEMEELQEEKECEKPQGDEEEEEEEEEVEEEEVEEAENEGEEAKTEGLMKDDRAESQASSLGQKVGESSEQVSEEKTNEA
For B1, which binding [3] is on record?
Its binding is “binds”.

And the binding (Myc-BRCC3)?
Its binding is “binds”.
